In publication PMC4333415, “Structural insight into operator dre-sites recognition and effector binding in the GntR/HutC transcription regulator NagR” (Nucleic Acids Research, 2015):
For some assays here: A negative result means that nothing was seen under these conditions. At least one verdict rests on a figure or table, not on a statement of the authors. Where a protein sequence is shown, tags need not be part of it. For some assays here: For at least one entry, the source does not settle the construct or the ends of the probe.

Experiments:
[1] = target: T1, NagR (YvoA) (Bacillus subtilis) (UniProt O34817); assay: EMSA; settings: 2 uM DNA; recombinant protein
T1 sequence (looked up, limits assumed): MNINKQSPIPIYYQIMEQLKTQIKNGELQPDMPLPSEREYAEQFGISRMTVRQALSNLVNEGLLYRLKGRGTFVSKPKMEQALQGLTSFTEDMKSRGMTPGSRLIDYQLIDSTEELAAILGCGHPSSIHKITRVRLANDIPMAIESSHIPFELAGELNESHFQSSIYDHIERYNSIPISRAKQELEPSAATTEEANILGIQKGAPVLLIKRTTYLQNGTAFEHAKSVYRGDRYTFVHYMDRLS

[2] = target: T2, NagR-DBD (Bacillus subtilis) (UniProt O34817); assay: EMSA; settings: 2 uM DNA; recombinant protein; residues 1-75
T2 sequence (looked up): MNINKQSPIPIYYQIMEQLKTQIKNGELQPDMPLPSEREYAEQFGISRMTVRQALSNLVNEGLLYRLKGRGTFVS

[3] = target: T1, NagR (YvoA) (Bacillus subtilis); assay: SEC; settings: 3 uM DNA; recombinant protein
[4] = target: T2, NagR-DBD (Bacillus subtilis); assay: SEC; settings: 3 uM DNA, non-equilibrium, no complex detected although SPR shows binding; recombinant protein; residues 1-75

Sequence | binding result [1] | binding result [2] | binding result [3] | binding result [4]
TTGGTATAGATCACT / GTGATCTATACCAAT [15mer native nagP dsDNA] | binds | binds | – | –
CTGGTCTAGATCACT / GTGATCTAGACCAGT [15mer native nagAB dsDNA] | binds | binds | binds | no binding
GTGGTCTAGACCACT / GTGGTCTAGACCACT [15mer palindromic dsDNA] | binds | binds | – | –
